“And” between values parts separate entries of the source, which are not always exact repeats. Equal entries are not always repeated. Among all 300,000 compounds or so, about 5,400 (1.8%) were called active. This list was built around the results that the source calls inconclusive (neither active nor inactive); the mix of calls is not that of the screen. Calls follow the shape of the full dose curve; tested in HEK293 cells. Potencies beside an inconclusive call are fits to weak or partial responses and may not hold up.
Test: qHTS for inhibitors of binding or entry into cells for Marburg Virus
Conditions: Marburg virus pseudotyped entry inhibition, cell reporter; activity change, negative = inhibition: at 37.8 µM (top of the series) unless noted
With `Cc1ccc(Cl)cc1N1CCN(C(=O)CCCn2c(=O)[nH]c3ccc(Br)cc3c2=O)CC1` the Potency was inconclusive: 3.98 µM [inhibitor, full curve].
In the case of `COc1ccc(N2CCN(C(=O)C(Cc3ccccc3)NC(=O)c3ccccc3)CC2)cc1` (centres undefined), the Potency is reported as inconclusive: 35.5 µM [inhibitor, single point].
In the case of `CCCCn1cnc2c(SCc3ccccn3)nc(N)nc21`, the Potency is reported as inconclusive: 14.1 µM [activator, single point].
With `Cc1[nH]c2ccccc2c1C(c1ccncc1)N1CCC(C)CC1` (centres undefined) the “activity change, negative = inhibition” value was inactive: 11.7%.
With `Cc1cccc(C)c1NC(=O)C1C2C=CC(C2)C1C(=O)NCc1ccccn1` (centres undefined) the “activity change, negative = inhibition” value was inactive: 5.88%.
For `C=CCN(C(=O)c1cccc(S(=O)(=O)N2CCN(C)CC2)c1)c1nc(-c2ccccc2)cs1`, the Potency was inconclusive: 35.5 µM [inhibitor, single point].
With `CCCOc1ccc(/C=C/C(=O)NC2CCCCC2)cc1` the Potency was inconclusive: 10 µM [activator, partial curve].
With `O=C(Cc1cccs1)Nc1ccccc1-c1nc2ccccc2[nH]1` the Potency was inconclusive: 20 µM [inhibitor, single point].
With `CC1Cc2ccccc2N1c1nc(C2CC2)nc2c1nnn2Cc1ccccc1` (centres undefined) the “activity change, negative = inhibition” value was inactive: 0.235%.
In the case of `FC(F)(F)c1ccc2c(c1)[nH]c(=S)n2C1CC1`, the Potency is reported as inconclusive: 14.1 µM [inhibitor, single point].
In the case of `COc1ccc(CNC(=O)CN(C(=O)CCC(=O)Nc2ccccn2)c2cccc(C)c2)cc1`, the Potency is reported as inconclusive: 0.794 µM [inhibitor, partial curve, poor fit].
For `Cc1ccc2oc(=O)c3cc(C(=O)N4CCN(c5ccccc5F)CC4)sc3c2c1`, the “activity change, negative = inhibition” value was inactive: -5.31% [at 46.1 µM].
With `Cc1cc(C)n(CC(O)Cn2c(C)c(C)c3ccccc32)n1` (centres undefined) the Potency was inconclusive: 6.31 µM [inhibitor, single point].
With `O=C(COC(=O)C1CCC(N2C(=O)C3C4CCC(C4)C3C2=O)CC1)c1ccc(F)cc1` (centres undefined) the “activity change, negative = inhibition” value was inactive: 1.78% [at 46.1 µM].
In the case of `Nc1c(C(=O)N/N=C/c2cccnc2)oc2nc(-c3ccco3)cc(-c3ccco3)c12`, the Potency is reported as inconclusive: 12.6 µM [inhibitor, partial curve, poor fit].
With `CCOc1ccc2nc(COC(=O)c3cccc([N+](=O)[O-])c3)c(C(C)=O)[n+]([O-])c2c1` the Potency was inconclusive: 6.31 µM [inhibitor, partial curve, poor fit].
With `Cc1ccsc1C(=O)NCCc1c[nH]c2ccccc12` the “activity change, negative = inhibition” value was inactive: 3.94% [at 46.1 µM].
For `COC(=O)c1c(-c2ccc(Br)cc2)csc1NC(=O)Cc1ccc(OC)c(OC)c1`, the “activity change, negative = inhibition” value was inactive: -19.8%.
For `c1ccc(CN(CC2=NCCN2)c2ccccc2)cc1`, the Potency was inconclusive: 29.1 µM [inhibitor, single point] and inconclusive: 18.4 µM [inhibitor, single point].
In the case of `Cc1ccc(N2C(=O)c3cccc4c(Oc5ccccc5[N+](=O)[O-])ccc(c34)C2=O)c(C)c1`, the Potency is reported as inconclusive: 35.5 µM [inhibitor, single point].
In the case of `O=C(NCc1cccnc1)c1ccc(COc2ccccc2Br)o1`, the Potency is reported as inconclusive: 3.66 µM [inhibitor, partial curve].
In the case of `CCOc1cc(/C=C2\N=C(C)OC2=O)cc(Br)c1OCC(=O)OC`, the Potency is reported as inconclusive: 0.103 µM [inhibitor, full curve, poor fit].
For `CCN(c1nc(N)c(C(=O)N=C(N)N)nc1Cl)C(C)C`, the Potency was active: 14.1 µM.
With `COC(=O)c1ccc(COc2ccccc2/C=C(\C#N)C(=O)NC(C)C)cc1` the “activity change, negative = inhibition” value was inactive: -3.43%.
For `N#C/C(=C\c1cccnc1)C(=O)Nc1ccc(O)cc1F`, the “activity change, negative = inhibition” value was inactive: 0.34% [at 46.1 µM].
With `Cc1cc(C)n2nc(/C(C#N)=C/c3ccccn3)c(C#N)c2n1` the Potency was inconclusive: 8.91 µM [inhibitor, partial curve, poor fit].
For `O=C(CCCn1c(=S)[nH]c2ccccc2c1=O)N1CCN(c2cccc(Cl)c2)CC1`, the “activity change, negative = inhibition” value was inactive: -24.6%.
For `CN(C)c1nc(Cl)nc(N(C#N)CCOc2ccccc2)n1`, the Potency was inconclusive: 11.2 µM [inhibitor, partial curve, poor fit].
In the case of `O=C(NCC1CCCO1)c1sc(=S)n2c1[nH]c(=O)c1ccc(C(=O)N3CCCCC3)cc12` (centres undefined), the Potency is reported as inconclusive: 0.164 µM [inhibitor, single point].
For `CCn1c2ccccc2c2cc(/C=N/NC(=O)c3cc(O)cc(O)c3)ccc21`, the Potency was inconclusive: 5.62 µM [activator, single point].
In the case of `CCOC(=O)C1(Cc2cccc(OC)c2)CCN(Cc2cccc(OCC)c2O)CC1`, the Potency is reported as active: 7.08 µM.
In the case of `COc1ccccc1NC(=O)Nc1nnc(-c2ccco2)s1`, the “activity change, negative = inhibition” value is reported as inactive: 0.00902%.
In the case of `Cc1ccc(S(=O)(=O)N2CCOCC2)cc1NC(=O)COC(=O)CNC(=O)c1ccc(Oc2ccccc2)cc1`, the “activity change, negative = inhibition” value is reported as inactive: -0.56%.
For `CC1(C(=O)OCC(=O)Nc2nnc(-c3ccccc3)o2)CC1(Cl)Cl` (centres undefined), the Potency was inconclusive: 1.26 µM [activator, partial curve, poor fit].
For `CN1C(=O)/C(=C\c2ccc(N(C)C)cc2)OC1=S`, the “activity change, negative = inhibition” value was inactive: 9.06% [at 46.1 µM].
For `CCOc1ccccc1CNCCO`, the “activity change, negative = inhibition” value was inactive: 22.2%.
For `CSCCC1NC2(C(=O)Nc3c(C)cc(Cl)cc32)[C@@H]2C(=O)N(C3CCCC3)C(=O)[C@H]12` (some centres undefined), the Potency was inconclusive: 29.1 µM [inhibitor, single point].
In the case of `CN(C)S(=O)(=O)c1cccc(C(=O)Nc2ccc(Cl)cn2)c1`, the Potency is reported as inconclusive: 3.66 µM [activator, single point].
For `Cc1cc(C)c2c(-n3cccc3)c(C(=O)NCc3cccc(F)c3)sc2n1`, the “activity change, negative = inhibition” value was inactive: 6.47% [at 46.1 µM].
With `O=C(CSc1n[nH]c(-c2ccco2)n1)Nc1ccc(Br)cc1` the Potency was inconclusive: 6.31 µM [inhibitor, partial curve, poor fit].
With `Cc1ccc(NC(=S)NCc2ccccc2)cc1S(=O)(=O)N1CCCCC1` the Potency was inconclusive: 14.6 µM [inhibitor, partial curve, poor fit].
For `CCOc1ccc(NC(=O)c2nc3nc(C)cc(C(F)F)n3n2)cc1`, the “activity change, negative = inhibition” value was inactive: 13.3% [at 46.1 µM].
With `O=C(CN1C(=O)CCC1=O)NNc1ccc2ccccc2c1` the Potency was inconclusive: 0.0052 µM [inhibitor, full curve, poor fit].
In the case of `COc1ccc(/C=C2\SC(=O)N(CCNC(=O)C3=COCCO3)C2=O)cc1`, the “activity change, negative = inhibition” value is reported as inactive: 10.6%.
% is scaled to controls: 0 for no effect and ±100 for the full control effect; potency is read from the fitted curve at half-maximal effect.
